Reference: US12427149B2, “Methods and compositions for the prevention and treatment of hearing loss” (Ting Therapeutics, Inc., priority 2019, dated 2025)

Test system: mouse cochlear explants
Settings: for Therapeutic index in mouse cochlear explant (LD50/IC50): Table 1
Procedure: Dab alone or Dab added 1 h before cisplatin (150 μM) to P3 FVB cochlear explants for 24 h.
Now referring to FIG. 9, testing of a B-Raf/MEK1/2 inhibitor combination in mouse cochlear explant cultures. Compounds alone or combination of the compounds were added 1 h before cisplatin (150 μM) to P3 FVB cochlear explants for 24 h, and number of outer hair cells per 160 μm of middle turn regions of the cochlea were counted by phalloidin staining, mean±SEM, P=*<0.05, P=***<0.001, compared to cisplatin alone by unpaired two-tailed Student's t-test.
Methods of using a zebrafish model system to evaluate small molecules capable of decreasing, inhibiting or preventing sensory hair cell damage or death are provided. Zebrafish are an advantageous animal model system for studying causes and prevention of hearing loss in comparison to mammalian animal model systems. The relative inaccessibility of hair cells in mammalian organisms limits their use as a high throughput model for identifying compounds that would prevent toxin mediated and other forms of hair cell death from occurring. The lateral line neuromast hair cells of zebrafish (Danio rerio) are structurally and functionally similar to mammalian sensory hair cells. […] Compounds alone or compounds added 1 h before cisplatin (150 μM) to P3 FVB cochlear explants for 24 h, and number of outer hair cells per 160 μm of middle turn regions of the cochlea were counted by phalloidin staining, mean±SEM, P=*<0.05, P=**<0.005, ***P<0.0005 compared to cisplatin alone by unpaired two-tailed Student's t-test.
Compounds alone (purple bar) or combination of the compounds were added 1 h before cisplatin (150 μM) to P3 FVB cochlear explants for 24 hrs, and number of outer hair cells per 160 μm of middle turn regions of the cochlea were counted by phalloidin staining, mean±SEM, P=*<0.05, P=**<0.005, compared to cisplatin alone by unpaired two-tailed Student's t-test.

Structure (SMILES) | Therapeutic Index in mouse cochlear explants | Therapeutic index in mouse cochlear explant (LD50/IC50)
Cn1c(Nc2ccc(C(F)(F)F)cc2)nc2cc(Oc3ccnc(-c4ncc(C(F)(F)F)[nH]4)c3)ccc21 [RAF-265] | greater than 150 | 
FC(F)(F)c1ccc(/C=C/c2nc(COc3ccc(CCCCn4ccnn4)cc3)co2)cc1 [Mubritinib] | > 200 | >500
O=C(Nc1cccc(Cl)c1)Nc1ncc(CCNc2ncnc3ccsc23)s1 [SNS-314] |  | >100
CC1(COc2ccc3c(c2)ncn3-c2ccc3cccc(N4CCC(N)CC4)c3n2)COC1 [Crenolanib] |  | >14
